{
  "source": "patent US20220056087A1",
  "about": "(GLIKNIK, published 2022)",
  "binders": {"B1": {"name": "M046 stradomer (Fc fusion)", "chain": "DEPRGPTIKPCPPCKCPAPNLLGGPSVFIFPPKIKDVLMISLSPIVTCVVVDVSEDDPDVQISWFVNNVEVHTAQTQTHREDYNSTLRVVSALPIQHQDWMSGKEFKCKVNNKDLPAPIERTISKPKGSVRAPQVYVLPPPEEEMTKKQVTLTCMVTDFMPEDIYVEWTNNGKTELNYKNTEPVLDSDGSYFMYSKLRVEKKNWVERNSYSCSVVHEGLHNHHTTKSFSRTPGKGGGSIKQIEDKIEEILSKIYHIENEIARIKKLIGERG", "notes": "Murine counterpart of G046 (Fc with C-terminal isoleucine zipper); The entry may include a leader"}},
  "key": {"[1]": {"target": "T1, mouse FcγRIIB (immobilized on CM4 chip) (mouse, UniProt P08101 30-207, limits assumed)", "T1 construct": "also called mouse FcγR2b", "T1 sequence (looked up)": "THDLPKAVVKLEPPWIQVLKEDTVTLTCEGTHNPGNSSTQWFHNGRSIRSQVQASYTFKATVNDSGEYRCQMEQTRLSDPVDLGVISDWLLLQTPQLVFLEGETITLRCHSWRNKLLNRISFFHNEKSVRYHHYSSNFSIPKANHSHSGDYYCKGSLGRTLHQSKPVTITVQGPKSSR", "assay": "SPR (Biacore), receptor amine-coupled to a CM4 chip, analyte 500 nM to 1.9 nM; panel 'Mse FcR2B'", "method": "(§1) FcγRIIIA, FcγRIIB and SIGN-R1 receptors were immobilized to a CM4 chip using amine immobilization to 560, 500, and 1000RU, respectively to compensate for protein size.\n(§2) Regeneration was achieved by a 10 sec injection of 1M MgCl at 100 ul/min, followed by a brief wash with running buffer. KDs were calculated using T100 evaluation software."}, "[2]": {"target": "T2, mouse SIGN-R1 (immobilized on CM4 chip) (mouse, UniProt Q8CJ91 74-325, limits assumed)", "T2 sequence (looked up)": "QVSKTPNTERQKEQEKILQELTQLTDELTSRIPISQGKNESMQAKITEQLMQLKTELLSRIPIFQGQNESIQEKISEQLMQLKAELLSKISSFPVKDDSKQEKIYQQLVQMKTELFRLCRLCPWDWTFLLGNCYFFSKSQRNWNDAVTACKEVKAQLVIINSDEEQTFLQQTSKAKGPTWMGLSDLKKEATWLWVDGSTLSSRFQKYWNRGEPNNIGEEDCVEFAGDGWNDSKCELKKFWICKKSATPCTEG", "assay": "SPR (Biacore) as in Example 4, SIGN-R1 on the chip", "method": "as §1, §2\nM045F was first gel fractionated using an AktaXpress protein purification system and a GE HiLoad 16/60 Superdex 200 prep grade column."}, "[3]": {"target": "T3, mouse FcγRIIIA (immobilized on CM4 chip) (mouse, UniProt P08508 31-215)", "T3 construct": "also called mouse FcγR3A", "T3 sequence (looked up)": "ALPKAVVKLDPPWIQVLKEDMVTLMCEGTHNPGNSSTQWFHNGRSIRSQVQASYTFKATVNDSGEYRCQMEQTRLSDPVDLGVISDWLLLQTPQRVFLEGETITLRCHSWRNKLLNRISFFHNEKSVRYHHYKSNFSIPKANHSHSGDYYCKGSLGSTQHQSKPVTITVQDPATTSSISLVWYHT", "assay": "SPR (Biacore), receptor amine-coupled to a CM4 chip, analyte 500 nM to 1.9 nM; panel 'Mse FcR3A'", "method": "as §1, §2"}},
  "data": [
    {"binder": "B1", "values": [
      {"measurement": "Kd", "setting": "[1]", "value": 47.9, "unit": "nM"},
      {"measurement": "Kd", "setting": "[2]", "value": 74.1, "unit": "nM"},
      {"measurement": "Kd", "setting": "[3]", "value": 33.4, "unit": "nM"}
    ]}
  ]
}
